Patent US20110300113A1, “Death Receptor CD95 Controls Neurogenesis of Adult Neural Stem Cells in Vivo and in Vitro” (DEUTSCHES KREBSFORSCHUNGSZENTRUM, priority 2006, published 2011)
At least one structure is not confirmed: it was looked up by name or label, or the drawing left a doubt.

How the values were obtained:
[1] = system: GSK3β and AKT phosphorylation; assay: Western blot of GSK3β and AKT phosphorylation in NSCs; assay type: cell-based, mouse; details: CD95-induced, inhibitor pretreatment
Experimental: Western Blots. Phosphorylated GSK3β (P-Ser9-GSK3β, 1:1000), phosphorylated AKT (P-Ser473-KT, 1:1000), total AKT (T-AKT, 1:1000), Src family kinases (Src, 1:1000), cleaved caspase 3 (1:250), total β-Catenin (1:1000) and phosphorylated src (Tyr416) were purchased from Cell Signaling/New England Biolabs. pp60(c-Src) antibody was purchased from Upstate. Antibody against total GSK3β (T-GSK3β, 1:1000), were purchased from Santa Cruz. The PI3K inhibitor […] (25 μM) and the Src family kinase inhibitor PP2 (20 μM) were purchased from Calbiochem. Cells were preincubated with inhibitors 30 minutes (LY 294002) and 1 hour (PP2) prior to treatment. Cells were lysed for further biochemical analysis. Protein extraction and immunoblotting was performed as previously described.

hippocampal NSCs = assay: β-III-tubulin expression in hippocampal neural progenitor cells; assay type: cell-based, mouse; details: neural progenitors isolated from the HC
Experimental: (§1) For staining of intracellular markers, cells were harvested, fixed with 4% PFA for 10 min on ice, washed and permeabilized using 0.1% Saponin (Sigma-Aldrich) in PBS with 10% FCS (SAP). Cells were incubated with primary antibody or isotype for 30 min on ice. Cells were washed three time with SAP and incubated with secondary antibody for 30 min on ice. Cells were washed again three times with SAP and analysed. Antibodies used were: anti β-III-tubulin (Chemicon) 1:100, anti GFAP (Chemicon) 1:100 and isotype mouse IgG1 (Sigma) 1:20. Secondary antibody was goat anti-mouse PE 1:100 (Dianova). To quantify DNA fragmentation, cells detached with trypsin were centrifuged, washed and fixed with 70% ethanol at −20° C. for 1 h. Fixed cells were resuspended in a hypotonic lysis buffer (0.1% sodium citrate and 0.1% Triton X-100) containing […] of propidium iodide, incubated at 4° C. overnight. After final washings, all samples were analysed using a FACS-Calibur (Becton Dickinson) and CellQuest Software (Becton Dickinson).
(§2) Mouse adult neural stem cell culture. NSCs were isolated as previously described^30. Briefly, 6 week old female C57BL6 mice were sacrificied and tissue from hippocampus, SVZ and spinal cord was dissected out. […]

neural progenitor cells = assay: GFAP expression (glial differentiation) in neural progenitor cells; assay type: cell-based, mouse; details: data not shown
Experimental: as §1, §2

mouse adult SVZ NSCs = assay: Gene expression by quantitative real-time PCR in adult SVZ NSCs; assay type: cell-based; details: 48 h after stimulation
Experimental: Real-time Quantitative PCR. 24 h cells after plating cells were stimulated with 1 activation unit of CD95L-T4. After 48 h RNA was isolated using the RNeasy Mini Kit (Qiagen). Real-time quantitative PCR was carried out using Sybr Green core kits (Eurogentec) and Uracil-N-glycosylase (Eurogentec). For determining CD95L induction after global ischemia, the hippocampi were dissected out and stored in RNAlater reagent (Ambion). RNA was extracted using the RNeasy Mini Kit (Qiagen). Real-time quantitative PCR was carried out using Sybr Green core kits (Eurogentec) and Uracil-N-glycosylase (Eurogentec). Primers used for quantitative real-time PCR were designed using Primer 3 software (http://fokker.wi.mit.edu/cgi-bin/primer3/primer3_www.cgi).

[2] = system: SVZ stem cells isolated from lpr mice; assay: β-III-tubulin expression in SVZ stem cells isolated from lpr mice; assay type: cell-based, mouse; details: data not shown

| Compound | phosphorylation of GSK3β [1] | β-III-tubulin expression (hippocampal NSCs) | β-III-tubulin expression (hippocampal NSCs; listed as retionic acid) | GFAP expression (neural progenitor cells) | BDNF expression (mouse adult SVZ NSCs) | Jagged1 mRNA levels (mouse adult SVZ NSCs) | β-III-tubulin expression [2] |
| --- | --- | --- | --- | --- | --- | --- | --- |
| O=c1cc(N2CCOCC2)oc2c(-c3ccccc3)cccc12 [LY 294002] | blocked | – | – | – | – | – | – |
| CC1=C(/C=C/C(C)=C/C=C/C(C)=C/C(=O)O)C(C)(C)CCC1 [RA, Retinoic acid, reference compound] | – | increased the amount of β-III-tubulin positive hippocampal NSCs | increase in β-III-tubulin expression | did not change GFAP expression | not | not | increased expression of β-III-tubulin |
